The results in this text go back to article PMC5995851, “Conformational rearrangements of the C1 ring in KaiC measure the timing of assembly with KaiB” (Scientific Reports, 2018).

No constants are given. Whether binding was seen depends on the method and setting. Some results given as binding are weak or reduced against the parent protein; the word gives no strength.

This assay deals with KaiC1^S229W (C1-domain truncation of KaiC with S229W) (Synechococcus elongatus) (UniProt Q79PF4). The assay is described as follows: crystal structure; KaiC1^S229W, reflections at 50-2.8 Å, 100 K, molecular replacement with 4TL7; both purified.

B1: KaiC1^S229W (C1-domain truncation of KaiC with S229W) (domain or fragment, UniProt Q79PF4 1-254)
chain: MTSAEMTSPNNNSEHQAIAKMRTMIEGFDDISHGGLPIGRSTLVSGTSGTGKTLFSIQFLYNGIIEFDEPGVFVTFEETPQDIIKNARSFGWDLAKLVDEGKLFILDASPDPEGQEVVGGFDLSALIERINYAIQKYRARRVSIDSVTSVFQQYDASSVVRRELFRLVARLKQIGATTVMTTERIEEYGPIARYGVEEFVSDNVVILRNVLEGERRRRTLEILKLRGTWHMKGEYPFTITDHGINIFPLGAMRL
As to B1, the binding result is on record as “binds”.
